Reference: the supplement of paper PMC12067093, “Discovery and optimisation of a covalent ligand for TRIM25 and its application to targeted protein ubiquitination” (Chemical Science, 2025)
The other results are listed elsewhere or left out.

Protein sequences, listed by entry. Tags and fused reporters are not part of them. Lines headed by an entry give the natural chain unless they say otherwise; changes in a name come on top.
UniProt P48735: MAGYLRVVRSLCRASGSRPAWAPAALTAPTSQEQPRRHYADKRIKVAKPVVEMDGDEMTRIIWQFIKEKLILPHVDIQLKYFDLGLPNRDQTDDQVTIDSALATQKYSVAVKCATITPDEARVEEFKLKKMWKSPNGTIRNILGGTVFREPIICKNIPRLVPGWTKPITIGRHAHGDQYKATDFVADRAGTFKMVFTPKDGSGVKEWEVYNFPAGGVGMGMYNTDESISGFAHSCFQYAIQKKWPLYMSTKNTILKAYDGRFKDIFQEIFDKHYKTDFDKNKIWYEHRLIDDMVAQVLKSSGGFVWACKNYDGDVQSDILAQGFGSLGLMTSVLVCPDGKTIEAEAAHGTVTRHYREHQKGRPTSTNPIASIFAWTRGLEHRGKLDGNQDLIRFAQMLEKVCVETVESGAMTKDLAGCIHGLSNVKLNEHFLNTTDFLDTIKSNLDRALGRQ
UniProt P11717, whole entry, looked up: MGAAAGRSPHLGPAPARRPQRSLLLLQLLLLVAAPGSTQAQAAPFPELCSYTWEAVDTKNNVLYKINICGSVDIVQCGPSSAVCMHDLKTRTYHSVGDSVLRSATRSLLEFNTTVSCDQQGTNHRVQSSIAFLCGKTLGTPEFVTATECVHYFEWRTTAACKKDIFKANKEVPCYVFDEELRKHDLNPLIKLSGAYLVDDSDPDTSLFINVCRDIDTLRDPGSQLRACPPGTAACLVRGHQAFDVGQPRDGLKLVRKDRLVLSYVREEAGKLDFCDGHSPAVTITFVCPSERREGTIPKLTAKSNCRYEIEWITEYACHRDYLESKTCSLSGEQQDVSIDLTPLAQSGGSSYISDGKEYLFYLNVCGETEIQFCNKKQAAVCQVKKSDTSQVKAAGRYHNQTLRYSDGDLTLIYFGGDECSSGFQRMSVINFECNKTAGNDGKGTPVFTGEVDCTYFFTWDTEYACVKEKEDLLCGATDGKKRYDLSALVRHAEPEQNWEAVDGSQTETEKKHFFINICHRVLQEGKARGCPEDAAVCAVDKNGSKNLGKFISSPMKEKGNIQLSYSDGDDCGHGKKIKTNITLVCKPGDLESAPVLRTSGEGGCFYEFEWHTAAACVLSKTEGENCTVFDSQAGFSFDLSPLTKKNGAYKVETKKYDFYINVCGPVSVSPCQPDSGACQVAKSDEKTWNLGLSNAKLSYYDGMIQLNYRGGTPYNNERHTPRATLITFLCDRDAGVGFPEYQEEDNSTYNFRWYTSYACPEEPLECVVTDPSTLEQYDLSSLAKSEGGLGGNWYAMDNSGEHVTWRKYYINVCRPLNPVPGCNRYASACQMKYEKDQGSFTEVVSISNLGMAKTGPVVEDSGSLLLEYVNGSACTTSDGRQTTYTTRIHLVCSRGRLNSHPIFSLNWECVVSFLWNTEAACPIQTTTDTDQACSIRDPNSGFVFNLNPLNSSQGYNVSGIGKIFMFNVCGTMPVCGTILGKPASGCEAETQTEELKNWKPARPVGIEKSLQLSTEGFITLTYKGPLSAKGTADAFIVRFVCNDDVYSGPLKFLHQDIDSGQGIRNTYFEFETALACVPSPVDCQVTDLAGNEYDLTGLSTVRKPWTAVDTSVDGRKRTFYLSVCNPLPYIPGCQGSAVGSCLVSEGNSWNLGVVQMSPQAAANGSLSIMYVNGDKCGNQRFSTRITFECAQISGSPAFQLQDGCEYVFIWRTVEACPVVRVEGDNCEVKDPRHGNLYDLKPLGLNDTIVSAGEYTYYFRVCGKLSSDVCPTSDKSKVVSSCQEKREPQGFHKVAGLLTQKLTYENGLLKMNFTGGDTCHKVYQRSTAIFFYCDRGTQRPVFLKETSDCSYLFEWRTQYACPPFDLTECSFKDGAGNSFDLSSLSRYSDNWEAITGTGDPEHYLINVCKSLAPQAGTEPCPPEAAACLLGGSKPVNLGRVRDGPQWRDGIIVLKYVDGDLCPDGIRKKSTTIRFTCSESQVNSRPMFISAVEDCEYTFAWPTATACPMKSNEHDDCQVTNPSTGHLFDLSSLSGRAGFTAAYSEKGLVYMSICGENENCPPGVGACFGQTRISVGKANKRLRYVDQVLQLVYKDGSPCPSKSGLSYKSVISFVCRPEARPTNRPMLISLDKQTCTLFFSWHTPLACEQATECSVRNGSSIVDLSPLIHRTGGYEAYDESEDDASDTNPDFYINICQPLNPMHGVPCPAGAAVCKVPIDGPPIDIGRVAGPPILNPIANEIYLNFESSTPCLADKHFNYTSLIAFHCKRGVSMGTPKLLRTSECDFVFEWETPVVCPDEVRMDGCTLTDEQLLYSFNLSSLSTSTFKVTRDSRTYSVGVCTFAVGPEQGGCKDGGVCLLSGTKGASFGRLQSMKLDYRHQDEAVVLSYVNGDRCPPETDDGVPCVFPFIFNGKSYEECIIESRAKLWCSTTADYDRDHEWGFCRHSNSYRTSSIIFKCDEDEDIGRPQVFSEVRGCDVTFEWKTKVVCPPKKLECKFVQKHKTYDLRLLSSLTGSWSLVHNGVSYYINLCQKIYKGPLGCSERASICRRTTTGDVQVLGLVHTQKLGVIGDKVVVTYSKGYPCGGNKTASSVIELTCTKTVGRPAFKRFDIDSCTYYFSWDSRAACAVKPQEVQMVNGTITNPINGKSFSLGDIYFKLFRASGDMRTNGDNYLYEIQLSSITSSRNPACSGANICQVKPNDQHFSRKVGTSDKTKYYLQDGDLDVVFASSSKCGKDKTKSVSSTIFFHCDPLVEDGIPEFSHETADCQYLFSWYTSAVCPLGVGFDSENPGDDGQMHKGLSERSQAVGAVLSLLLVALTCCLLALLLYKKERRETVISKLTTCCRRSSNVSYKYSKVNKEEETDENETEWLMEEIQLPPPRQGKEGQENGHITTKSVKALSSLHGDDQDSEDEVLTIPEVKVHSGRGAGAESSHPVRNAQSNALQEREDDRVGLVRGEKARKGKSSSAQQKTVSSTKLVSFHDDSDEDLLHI
UniProt Q92835: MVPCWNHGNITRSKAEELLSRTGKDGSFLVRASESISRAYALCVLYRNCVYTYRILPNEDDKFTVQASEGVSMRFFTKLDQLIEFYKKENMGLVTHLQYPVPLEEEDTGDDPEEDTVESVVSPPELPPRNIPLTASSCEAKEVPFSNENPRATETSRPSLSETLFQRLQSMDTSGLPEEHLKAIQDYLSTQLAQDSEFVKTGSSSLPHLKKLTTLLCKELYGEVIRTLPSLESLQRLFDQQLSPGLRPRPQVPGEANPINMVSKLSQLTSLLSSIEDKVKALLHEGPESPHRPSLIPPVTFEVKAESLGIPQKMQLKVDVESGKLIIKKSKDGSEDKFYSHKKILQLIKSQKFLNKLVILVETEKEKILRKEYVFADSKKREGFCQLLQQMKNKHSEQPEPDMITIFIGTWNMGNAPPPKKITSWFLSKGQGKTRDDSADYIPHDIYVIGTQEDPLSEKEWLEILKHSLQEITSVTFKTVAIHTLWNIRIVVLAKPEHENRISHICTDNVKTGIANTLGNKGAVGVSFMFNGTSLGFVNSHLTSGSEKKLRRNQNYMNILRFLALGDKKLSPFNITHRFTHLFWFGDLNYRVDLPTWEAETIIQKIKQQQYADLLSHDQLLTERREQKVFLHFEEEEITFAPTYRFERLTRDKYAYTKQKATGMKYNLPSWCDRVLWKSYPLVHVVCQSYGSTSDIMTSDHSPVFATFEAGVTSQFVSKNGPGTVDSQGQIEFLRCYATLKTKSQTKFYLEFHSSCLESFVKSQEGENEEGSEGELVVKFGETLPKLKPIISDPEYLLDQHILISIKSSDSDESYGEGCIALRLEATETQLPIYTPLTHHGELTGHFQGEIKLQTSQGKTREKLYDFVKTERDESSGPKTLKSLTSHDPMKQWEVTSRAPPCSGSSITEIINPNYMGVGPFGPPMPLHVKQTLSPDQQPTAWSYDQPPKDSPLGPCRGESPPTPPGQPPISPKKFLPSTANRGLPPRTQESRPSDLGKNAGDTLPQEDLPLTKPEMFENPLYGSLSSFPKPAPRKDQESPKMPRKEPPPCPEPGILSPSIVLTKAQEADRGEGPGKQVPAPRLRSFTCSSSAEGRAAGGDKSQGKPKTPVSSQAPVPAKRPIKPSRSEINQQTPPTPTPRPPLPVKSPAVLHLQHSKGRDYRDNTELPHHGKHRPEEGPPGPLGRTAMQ
UniProt Q14642: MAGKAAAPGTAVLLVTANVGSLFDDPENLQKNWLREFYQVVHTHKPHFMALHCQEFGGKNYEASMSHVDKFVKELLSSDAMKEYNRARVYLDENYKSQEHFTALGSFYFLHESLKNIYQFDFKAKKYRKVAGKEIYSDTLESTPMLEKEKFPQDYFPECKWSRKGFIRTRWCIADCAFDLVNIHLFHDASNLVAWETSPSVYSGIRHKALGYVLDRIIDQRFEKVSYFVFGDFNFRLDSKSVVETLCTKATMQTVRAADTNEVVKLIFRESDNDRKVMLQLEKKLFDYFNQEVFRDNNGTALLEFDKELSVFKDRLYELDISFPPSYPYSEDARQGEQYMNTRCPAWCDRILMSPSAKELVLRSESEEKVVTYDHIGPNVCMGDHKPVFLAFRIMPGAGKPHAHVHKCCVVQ
UniProt Q16666: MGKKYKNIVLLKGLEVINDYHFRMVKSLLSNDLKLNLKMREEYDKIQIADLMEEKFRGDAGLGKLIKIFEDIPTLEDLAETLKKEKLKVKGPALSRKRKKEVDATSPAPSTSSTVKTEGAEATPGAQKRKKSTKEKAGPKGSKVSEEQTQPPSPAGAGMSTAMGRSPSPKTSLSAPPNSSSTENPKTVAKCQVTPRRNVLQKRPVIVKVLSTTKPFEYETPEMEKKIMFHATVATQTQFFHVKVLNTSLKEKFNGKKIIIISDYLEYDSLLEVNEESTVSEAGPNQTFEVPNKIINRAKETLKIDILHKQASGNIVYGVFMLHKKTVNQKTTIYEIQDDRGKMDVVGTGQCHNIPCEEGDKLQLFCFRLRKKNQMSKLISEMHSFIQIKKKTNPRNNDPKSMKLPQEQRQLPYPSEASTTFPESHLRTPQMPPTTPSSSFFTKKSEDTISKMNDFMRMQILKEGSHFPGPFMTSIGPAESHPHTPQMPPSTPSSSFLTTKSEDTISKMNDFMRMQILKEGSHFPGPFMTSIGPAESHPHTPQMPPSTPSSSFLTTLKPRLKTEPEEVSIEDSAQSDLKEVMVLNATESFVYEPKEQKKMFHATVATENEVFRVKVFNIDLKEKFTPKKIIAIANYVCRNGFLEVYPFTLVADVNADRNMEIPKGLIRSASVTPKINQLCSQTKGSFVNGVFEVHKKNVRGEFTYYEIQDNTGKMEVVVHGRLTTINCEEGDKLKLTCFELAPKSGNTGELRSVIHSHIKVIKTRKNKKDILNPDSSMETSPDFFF
UniProt P32019: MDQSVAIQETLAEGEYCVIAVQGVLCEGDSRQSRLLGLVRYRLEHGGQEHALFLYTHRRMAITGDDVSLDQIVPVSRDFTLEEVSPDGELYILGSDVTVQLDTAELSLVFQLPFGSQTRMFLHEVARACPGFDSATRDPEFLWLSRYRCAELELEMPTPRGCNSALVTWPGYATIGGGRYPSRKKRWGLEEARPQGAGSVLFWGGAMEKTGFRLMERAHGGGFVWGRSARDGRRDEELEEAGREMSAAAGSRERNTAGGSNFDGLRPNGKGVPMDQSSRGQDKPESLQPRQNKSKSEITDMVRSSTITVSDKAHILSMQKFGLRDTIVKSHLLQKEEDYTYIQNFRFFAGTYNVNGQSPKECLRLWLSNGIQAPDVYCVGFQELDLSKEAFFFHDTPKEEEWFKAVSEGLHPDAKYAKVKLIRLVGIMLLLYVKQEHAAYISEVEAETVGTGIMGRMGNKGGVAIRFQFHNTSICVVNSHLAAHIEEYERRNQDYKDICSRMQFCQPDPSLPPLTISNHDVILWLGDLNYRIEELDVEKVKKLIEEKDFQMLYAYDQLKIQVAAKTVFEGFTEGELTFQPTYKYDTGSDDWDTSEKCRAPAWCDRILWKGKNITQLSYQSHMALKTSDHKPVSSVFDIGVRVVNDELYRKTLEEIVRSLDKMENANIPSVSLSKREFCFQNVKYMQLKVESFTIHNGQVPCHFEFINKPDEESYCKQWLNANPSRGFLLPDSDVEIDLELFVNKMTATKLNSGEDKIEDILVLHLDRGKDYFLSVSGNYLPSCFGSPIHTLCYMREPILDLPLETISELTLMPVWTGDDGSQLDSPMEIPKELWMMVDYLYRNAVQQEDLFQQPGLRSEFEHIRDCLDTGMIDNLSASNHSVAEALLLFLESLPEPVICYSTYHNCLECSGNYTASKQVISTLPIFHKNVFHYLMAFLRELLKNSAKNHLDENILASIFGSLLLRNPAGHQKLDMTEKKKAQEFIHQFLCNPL

Compound: Cc1cc(ccc1-c1ccccc1)C(=O)N1CCCN(CC1)C(=O)CCl [compound 10]
Assay: probe-labelled cysteine peptide fold change vs DMSO (competition) (log2 fold change); higher = less target engagement (more negative = stronger competition)
Conditions: THP-1, incubation time: 4 h
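Further: competitive profiling in live THP-1 cells: cysteine peptides tagged with an iodoacetamide desthiobiotin (IA-DTB) probe, intensity after compound treatment relative to DMSO-treated cells.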

IDH2_P48735_308_SSGGFVWACK (UniProt P48735)
probe-labelled cysteine peptide fold change (10 µM): 0.168 | probe-labelled cysteine peptide fold change (50 µM): 0.23

HUWE1_Q7Z6Z7_3372_ACSPCSSQSSSSGICTDFWDLLVK (UniProt Q7Z6Z7)
probe-labelled cysteine peptide fold change (10 µM): -0.0662 | probe-labelled cysteine peptide fold change (50 µM): -0.703

IGF2R_P11717_1927_LWCSTTADYDRDHEWGFCR (UniProt P11717)
probe-labelled cysteine peptide fold change (10 µM): -0.112 | probe-labelled cysteine peptide fold change (50 µM): 0.217

IARS2_Q9NSE4_883_KPGLEEAVESACAMR (UniProt Q9NSE4)
probe-labelled cysteine peptide fold change (10 µM): 0.0507 | probe-labelled cysteine peptide fold change (50 µM): 0.0705

INPP5D_Q92835_217_KLTTLLCK (UniProt Q92835)
probe-labelled cysteine peptide fold change (10 µM): 0.196 | probe-labelled cysteine peptide fold change (50 µM): -0.0738

IKBKG_Q9Y6K9_54_CLEENQELRDAIR (UniProt Q9Y6K9)
probe-labelled cysteine peptide fold change (10 µM): 0.059 | probe-labelled cysteine peptide fold change (50 µM): -0.152

INPP5F_Q9Y2H2_725_DTLQCIAEMLQITK (UniProt Q9Y2H2)
probe-labelled cysteine peptide fold change (10 µM): 0.245 | probe-labelled cysteine peptide fold change (50 µM): 0.437

INPP5A_Q14642_381_VVTYDHIGPNVCMGDHKPVFLAFR (UniProt Q14642)
probe-labelled cysteine peptide fold change (10 µM): -0.257 | probe-labelled cysteine peptide fold change (50 µM): -0.454

IFI16_Q16666_351_MDVVGTGQCHNIPCEEGDK (UniProt Q16666)
probe-labelled cysteine peptide fold change (10 µM): 0.0638 | probe-labelled cysteine peptide fold change (50 µM): 0.278

INPP5D_Q92835_956_DSPLGPCR (UniProt Q92835)
probe-labelled cysteine peptide fold change (10 µM): -0.366 | probe-labelled cysteine peptide fold change (50 µM): -0.376

IDE_P14735_414_AEGPQEWVFQECK (UniProt P14735)
probe-labelled cysteine peptide fold change (10 µM): -0.0642 | probe-labelled cysteine peptide fold change (50 µM): 0.185

INPP1_P49441_97_LCSTEEETAELLSK (UniProt P49441)
probe-labelled cysteine peptide fold change (10 µM): 0.0651 | probe-labelled cysteine peptide fold change (50 µM): -0.0128

INPP5B_P32019_678_EFCFQNVK (UniProt P32019)
probe-labelled cysteine peptide fold change (10 µM): 0.0158 | probe-labelled cysteine peptide fold change (50 µM): 0.179

IMPA2_O14732_136_QELEFGVIYHCTEER (UniProt O14732)
probe-labelled cysteine peptide fold change (10 µM): 0.309 | probe-labelled cysteine peptide fold change (50 µM): 0.224

IGF2R_P11717_1987_VVCPPK (UniProt P11717)
probe-labelled cysteine peptide fold change (10 µM): -0.205 | probe-labelled cysteine peptide fold change (50 µM): -0.0493

HYOU1_Q9Y4L1_352_VTRVEFEELCADLFER (UniProt Q9Y4L1)
probe-labelled cysteine peptide fold change (10 µM): 0.184 | probe-labelled cysteine peptide fold change (50 µM): 0.123

INF2_Q27J81_38_LGPQDSDPTEANLESADPELCIR (UniProt Q27J81)
probe-labelled cysteine peptide fold change (10 µM): -0.0201 | probe-labelled cysteine peptide fold change (50 µM): -0.0578

ILF2_Q12905_37_GGPGGGFRPFVPHIPFDFYLCEMAFPR (UniProt Q12905)
probe-labelled cysteine peptide fold change (10 µM): -0.0384 | probe-labelled cysteine peptide fold change (50 µM): 0.234

IGF2R_P11717_1942_LWCSTTADYDRDHEWGFCR (UniProt P11717)
probe-labelled cysteine peptide fold change (10 µM): -0.0758 | probe-labelled cysteine peptide fold change (50 µM): 0.0172

ILVBL_A1L0T0_568_EQVPSLGSNVACGLAYTDYHK (UniProt A1L0T0)
probe-labelled cysteine peptide fold change (10 µM): -0.0103 | probe-labelled cysteine peptide fold change (50 µM): 0.303

IDH2_P48735_154_EPIICK (UniProt P48735)
probe-labelled cysteine peptide fold change (10 µM): -0.161 | probe-labelled cysteine peptide fold change (50 µM): 0.175

IFT140_Q96RY7_155_HLTHCIFR (UniProt Q96RY7)
probe-labelled cysteine peptide fold change (10 µM): 0.229 | probe-labelled cysteine peptide fold change (50 µM): 0.211

IMPACT_Q9P2X3_137+145_KKTEEEDVECEDDLILACQPESSLK (UniProt Q9P2X3)
probe-labelled cysteine peptide fold change (10 µM): -0.512 | probe-labelled cysteine peptide fold change (50 µM): -0.316

IFIT3_O14879_73_HLDGNNEAALECLR (UniProt O14879)
probe-labelled cysteine peptide fold change (10 µM): -0.0243 | probe-labelled cysteine peptide fold change (50 µM): -0.297

IKZF1_Q13422_71_ACEMNGEECAEDLR (UniProt Q13422)
probe-labelled cysteine peptide fold change (10 µM): -0.412 | probe-labelled cysteine peptide fold change (50 µM): -0.304

IFI16_Q16666_351+356_MDVVGTGQCHNIPCEEGDK (UniProt Q16666)
probe-labelled cysteine peptide fold change (10 µM): -0.467 | probe-labelled cysteine peptide fold change (50 µM): -0.24
